This is one part of the list.
Tests used:
Experiment in all cases: log2 fold change, soluble protein after heating vs DMSO (PISA); higher = thermal stabilisation; K562 lysate, 10 uM; active = over 0.2 and 3.5 SD of the protein, either way, in both replicates (recomputed)
ibrutinib = compound: C=CC(=O)N1CCC[C@@H](n2nc(-c3ccc(Oc4ccccc4)cc3)c3c(N)ncnc32)C1 [ibrutinib]
Procedure, shortened: (§1)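 Values give the log-two fold change in thermal stability against solvent controls, from duplicates. Crude K562 extract at 1 mg/mL protein, made by dounce homogenisation in PBS pH 7.4 with 1 mM MgCl2, was treated with 10 μM compound for 30 min. After 3 min heating across 48°C-58°C, aliquots were pooled, adjusted to 0.5% NP-40 at 4°C and centrifuged at 21,000xg for 90 min. The supernatant was measured by TMTpro 16plex LC-MS/MS with channel sums equalised.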

The chains behind the UniProt entries cited, without tags or fusion partners. Where a name states a change or a piece, a line headed by the entry shows the natural chain unless it says otherwise.
UniProt Q96BU1: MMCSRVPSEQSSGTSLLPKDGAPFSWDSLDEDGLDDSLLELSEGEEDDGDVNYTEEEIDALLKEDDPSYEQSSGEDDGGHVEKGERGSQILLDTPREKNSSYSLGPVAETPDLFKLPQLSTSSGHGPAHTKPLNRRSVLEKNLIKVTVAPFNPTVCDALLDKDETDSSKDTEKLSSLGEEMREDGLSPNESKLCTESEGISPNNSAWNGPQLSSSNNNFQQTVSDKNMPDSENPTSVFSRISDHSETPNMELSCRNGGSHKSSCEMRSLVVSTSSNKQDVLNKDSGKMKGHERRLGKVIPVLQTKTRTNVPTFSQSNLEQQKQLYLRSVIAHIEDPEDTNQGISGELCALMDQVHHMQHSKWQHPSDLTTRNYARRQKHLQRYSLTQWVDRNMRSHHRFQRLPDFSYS
UniProt O00422: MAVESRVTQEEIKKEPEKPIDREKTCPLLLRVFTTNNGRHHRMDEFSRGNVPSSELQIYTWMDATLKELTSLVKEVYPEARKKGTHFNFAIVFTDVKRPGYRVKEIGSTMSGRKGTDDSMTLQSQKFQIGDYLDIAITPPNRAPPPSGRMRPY
UniProt Q9NTJ5: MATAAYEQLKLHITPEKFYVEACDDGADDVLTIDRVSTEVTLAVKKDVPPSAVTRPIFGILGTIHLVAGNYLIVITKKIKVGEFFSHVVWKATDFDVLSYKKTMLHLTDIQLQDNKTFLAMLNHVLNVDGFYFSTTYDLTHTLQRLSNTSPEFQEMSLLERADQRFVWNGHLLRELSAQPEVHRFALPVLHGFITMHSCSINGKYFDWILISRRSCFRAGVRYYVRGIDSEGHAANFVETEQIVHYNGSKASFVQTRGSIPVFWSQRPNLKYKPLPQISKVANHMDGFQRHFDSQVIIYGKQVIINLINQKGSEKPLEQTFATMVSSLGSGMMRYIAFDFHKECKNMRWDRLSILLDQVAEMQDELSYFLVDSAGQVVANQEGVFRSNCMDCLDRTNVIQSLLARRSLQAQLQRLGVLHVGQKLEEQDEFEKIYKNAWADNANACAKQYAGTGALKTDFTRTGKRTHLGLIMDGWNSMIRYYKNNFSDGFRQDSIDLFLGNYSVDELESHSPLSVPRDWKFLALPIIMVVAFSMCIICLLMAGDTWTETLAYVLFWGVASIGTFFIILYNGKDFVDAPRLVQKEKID
UniProt P21912: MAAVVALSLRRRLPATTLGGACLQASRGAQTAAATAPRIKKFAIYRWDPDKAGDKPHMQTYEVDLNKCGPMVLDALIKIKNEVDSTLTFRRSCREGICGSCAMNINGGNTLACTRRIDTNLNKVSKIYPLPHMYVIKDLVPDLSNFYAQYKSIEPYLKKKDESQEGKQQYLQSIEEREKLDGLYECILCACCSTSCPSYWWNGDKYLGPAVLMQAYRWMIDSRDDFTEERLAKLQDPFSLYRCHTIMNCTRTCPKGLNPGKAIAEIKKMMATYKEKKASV
UniProt O95486: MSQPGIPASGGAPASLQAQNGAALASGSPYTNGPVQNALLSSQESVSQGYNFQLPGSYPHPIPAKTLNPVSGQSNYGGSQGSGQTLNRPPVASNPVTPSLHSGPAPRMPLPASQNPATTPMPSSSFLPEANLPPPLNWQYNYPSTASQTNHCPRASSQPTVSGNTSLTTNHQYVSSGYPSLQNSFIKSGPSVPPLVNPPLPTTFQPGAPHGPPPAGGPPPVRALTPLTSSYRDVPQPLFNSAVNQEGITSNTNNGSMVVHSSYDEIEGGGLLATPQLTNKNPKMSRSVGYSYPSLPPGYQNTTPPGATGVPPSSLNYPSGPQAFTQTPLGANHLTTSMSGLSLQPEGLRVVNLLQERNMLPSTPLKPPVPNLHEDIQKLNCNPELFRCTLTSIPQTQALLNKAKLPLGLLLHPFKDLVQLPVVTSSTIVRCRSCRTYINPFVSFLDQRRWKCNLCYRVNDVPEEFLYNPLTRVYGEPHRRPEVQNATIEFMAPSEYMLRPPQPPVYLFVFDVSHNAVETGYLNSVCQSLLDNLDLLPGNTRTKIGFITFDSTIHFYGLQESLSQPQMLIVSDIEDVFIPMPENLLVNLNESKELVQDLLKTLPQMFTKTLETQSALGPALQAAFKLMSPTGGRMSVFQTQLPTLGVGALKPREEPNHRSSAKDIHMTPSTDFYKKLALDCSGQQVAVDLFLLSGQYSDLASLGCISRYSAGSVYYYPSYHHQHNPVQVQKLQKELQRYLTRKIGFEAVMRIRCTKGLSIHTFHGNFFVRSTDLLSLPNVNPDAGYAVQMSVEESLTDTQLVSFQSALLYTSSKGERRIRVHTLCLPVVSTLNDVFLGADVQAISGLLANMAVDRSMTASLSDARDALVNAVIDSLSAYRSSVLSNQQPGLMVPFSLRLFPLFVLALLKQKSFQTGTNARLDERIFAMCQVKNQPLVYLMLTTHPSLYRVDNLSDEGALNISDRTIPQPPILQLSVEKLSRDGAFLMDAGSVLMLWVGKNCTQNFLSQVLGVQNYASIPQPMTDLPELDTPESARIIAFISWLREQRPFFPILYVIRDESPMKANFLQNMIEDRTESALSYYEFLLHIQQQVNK
UniProt Q8NBX0: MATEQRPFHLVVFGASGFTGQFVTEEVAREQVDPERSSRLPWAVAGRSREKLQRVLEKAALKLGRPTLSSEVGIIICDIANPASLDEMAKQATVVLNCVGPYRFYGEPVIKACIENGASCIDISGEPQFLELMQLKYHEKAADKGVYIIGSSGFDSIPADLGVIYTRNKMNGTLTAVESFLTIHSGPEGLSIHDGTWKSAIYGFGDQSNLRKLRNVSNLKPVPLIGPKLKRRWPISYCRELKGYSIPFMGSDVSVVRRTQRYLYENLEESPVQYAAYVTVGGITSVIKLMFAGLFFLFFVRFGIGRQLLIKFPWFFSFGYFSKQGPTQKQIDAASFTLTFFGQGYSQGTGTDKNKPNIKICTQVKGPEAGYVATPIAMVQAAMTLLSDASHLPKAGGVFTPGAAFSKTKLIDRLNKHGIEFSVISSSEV
UniProt Q15436: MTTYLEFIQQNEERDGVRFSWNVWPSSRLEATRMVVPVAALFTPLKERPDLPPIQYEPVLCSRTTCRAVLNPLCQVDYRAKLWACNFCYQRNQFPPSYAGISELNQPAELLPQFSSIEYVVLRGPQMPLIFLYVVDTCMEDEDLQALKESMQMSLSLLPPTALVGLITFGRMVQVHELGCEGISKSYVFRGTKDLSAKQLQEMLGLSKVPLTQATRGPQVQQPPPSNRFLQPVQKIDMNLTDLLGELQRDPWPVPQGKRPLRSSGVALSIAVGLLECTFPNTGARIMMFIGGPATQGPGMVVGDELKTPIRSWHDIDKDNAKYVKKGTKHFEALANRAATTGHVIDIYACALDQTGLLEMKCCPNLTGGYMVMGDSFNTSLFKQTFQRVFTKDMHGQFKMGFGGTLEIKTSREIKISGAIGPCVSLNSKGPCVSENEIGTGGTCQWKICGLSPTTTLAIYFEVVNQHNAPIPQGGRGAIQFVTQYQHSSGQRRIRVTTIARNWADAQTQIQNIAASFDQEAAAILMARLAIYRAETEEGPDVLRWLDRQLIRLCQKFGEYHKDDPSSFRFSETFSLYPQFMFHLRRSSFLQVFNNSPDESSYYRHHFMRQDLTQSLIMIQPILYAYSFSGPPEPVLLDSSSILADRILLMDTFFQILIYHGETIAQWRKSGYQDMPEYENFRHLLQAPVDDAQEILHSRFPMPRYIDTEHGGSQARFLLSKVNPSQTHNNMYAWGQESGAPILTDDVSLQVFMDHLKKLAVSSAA
UniProt Q9Y512: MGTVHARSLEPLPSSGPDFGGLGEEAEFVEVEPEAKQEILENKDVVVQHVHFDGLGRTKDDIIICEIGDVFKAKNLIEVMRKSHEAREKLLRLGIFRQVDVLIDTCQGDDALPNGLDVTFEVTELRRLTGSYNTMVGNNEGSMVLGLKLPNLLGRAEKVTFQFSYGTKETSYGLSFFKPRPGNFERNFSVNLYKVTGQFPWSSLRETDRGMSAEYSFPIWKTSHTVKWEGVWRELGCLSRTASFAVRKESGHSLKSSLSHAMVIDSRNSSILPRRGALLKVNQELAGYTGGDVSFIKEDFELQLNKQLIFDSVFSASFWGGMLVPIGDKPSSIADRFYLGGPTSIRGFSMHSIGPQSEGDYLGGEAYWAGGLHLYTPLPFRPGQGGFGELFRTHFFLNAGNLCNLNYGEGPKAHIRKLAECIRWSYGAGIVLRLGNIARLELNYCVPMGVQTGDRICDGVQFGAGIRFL
UniProt Q99611, whole entry, looked up: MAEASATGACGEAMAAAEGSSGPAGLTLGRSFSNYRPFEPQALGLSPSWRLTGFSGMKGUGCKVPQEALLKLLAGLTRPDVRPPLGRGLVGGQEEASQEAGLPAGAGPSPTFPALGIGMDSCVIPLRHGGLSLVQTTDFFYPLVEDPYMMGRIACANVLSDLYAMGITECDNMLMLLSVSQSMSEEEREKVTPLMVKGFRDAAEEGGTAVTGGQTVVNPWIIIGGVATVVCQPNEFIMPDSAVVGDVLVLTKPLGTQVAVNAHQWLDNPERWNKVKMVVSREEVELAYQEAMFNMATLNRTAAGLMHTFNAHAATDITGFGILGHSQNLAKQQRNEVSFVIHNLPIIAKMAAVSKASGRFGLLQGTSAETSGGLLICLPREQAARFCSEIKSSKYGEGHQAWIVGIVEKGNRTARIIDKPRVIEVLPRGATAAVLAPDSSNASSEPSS
UniProt Q12770: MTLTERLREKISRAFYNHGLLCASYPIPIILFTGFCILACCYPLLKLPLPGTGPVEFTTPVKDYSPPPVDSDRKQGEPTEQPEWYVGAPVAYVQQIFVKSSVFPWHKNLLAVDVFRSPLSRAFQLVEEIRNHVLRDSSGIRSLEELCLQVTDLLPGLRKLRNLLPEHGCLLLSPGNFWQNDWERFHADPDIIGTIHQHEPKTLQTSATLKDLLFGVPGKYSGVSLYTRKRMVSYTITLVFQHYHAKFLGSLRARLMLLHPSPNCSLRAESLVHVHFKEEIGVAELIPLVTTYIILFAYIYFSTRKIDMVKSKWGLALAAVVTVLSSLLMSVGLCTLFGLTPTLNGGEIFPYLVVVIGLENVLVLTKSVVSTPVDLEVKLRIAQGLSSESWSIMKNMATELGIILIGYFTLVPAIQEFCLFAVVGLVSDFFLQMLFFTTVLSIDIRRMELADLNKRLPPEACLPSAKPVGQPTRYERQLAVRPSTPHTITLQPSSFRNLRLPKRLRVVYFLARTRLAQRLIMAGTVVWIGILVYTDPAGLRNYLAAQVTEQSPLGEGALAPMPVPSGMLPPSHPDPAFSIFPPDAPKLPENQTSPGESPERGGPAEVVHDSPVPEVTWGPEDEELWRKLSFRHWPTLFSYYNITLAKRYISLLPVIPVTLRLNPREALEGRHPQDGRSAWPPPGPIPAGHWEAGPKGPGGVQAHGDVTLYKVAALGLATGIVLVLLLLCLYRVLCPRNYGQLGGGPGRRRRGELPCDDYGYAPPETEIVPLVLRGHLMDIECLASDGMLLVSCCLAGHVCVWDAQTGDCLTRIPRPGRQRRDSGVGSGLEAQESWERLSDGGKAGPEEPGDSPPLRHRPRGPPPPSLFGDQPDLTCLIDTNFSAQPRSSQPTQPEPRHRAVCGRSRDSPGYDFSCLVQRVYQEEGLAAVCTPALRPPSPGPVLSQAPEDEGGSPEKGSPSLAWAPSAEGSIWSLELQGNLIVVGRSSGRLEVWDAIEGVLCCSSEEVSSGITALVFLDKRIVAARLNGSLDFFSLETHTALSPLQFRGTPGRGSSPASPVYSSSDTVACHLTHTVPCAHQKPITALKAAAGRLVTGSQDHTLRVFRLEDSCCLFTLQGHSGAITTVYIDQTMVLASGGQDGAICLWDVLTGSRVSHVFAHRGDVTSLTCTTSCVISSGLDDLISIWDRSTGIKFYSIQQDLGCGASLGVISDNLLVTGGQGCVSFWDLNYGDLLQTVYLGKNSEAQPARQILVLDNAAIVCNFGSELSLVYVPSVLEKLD
UniProt P31040: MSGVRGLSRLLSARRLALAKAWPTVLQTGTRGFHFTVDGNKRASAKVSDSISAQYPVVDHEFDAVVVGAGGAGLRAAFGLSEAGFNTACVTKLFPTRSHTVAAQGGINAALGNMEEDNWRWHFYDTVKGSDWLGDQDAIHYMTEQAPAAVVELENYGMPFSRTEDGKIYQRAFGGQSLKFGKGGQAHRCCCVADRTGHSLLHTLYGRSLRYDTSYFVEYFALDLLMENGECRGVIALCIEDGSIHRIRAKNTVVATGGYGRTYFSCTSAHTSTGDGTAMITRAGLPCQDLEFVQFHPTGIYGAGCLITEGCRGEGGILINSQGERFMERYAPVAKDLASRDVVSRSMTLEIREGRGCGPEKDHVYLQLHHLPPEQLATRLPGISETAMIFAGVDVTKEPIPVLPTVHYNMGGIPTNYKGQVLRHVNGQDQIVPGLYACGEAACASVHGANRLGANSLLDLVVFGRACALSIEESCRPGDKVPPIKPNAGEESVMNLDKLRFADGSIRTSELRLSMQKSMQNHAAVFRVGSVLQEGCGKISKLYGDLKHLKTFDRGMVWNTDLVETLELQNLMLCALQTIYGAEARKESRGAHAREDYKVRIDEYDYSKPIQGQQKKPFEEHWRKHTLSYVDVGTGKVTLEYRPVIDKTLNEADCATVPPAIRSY

[1] = compound: CC(=O)c1cnc2ccc(-c3cc(Cl)c(O)c(Cl)c3)nc2c1N[C@H]1CC[C@H](CN(C)C)CC1
Procedure, shortened: as §1

ralimetinib = compound: CC(C)(C)Cn1c(N)nc2ccc(-c3[nH]c(C(C)(C)C)nc3-c3ccc(F)cc3)nc21 [ralimetinib]
Procedure, shortened: as §1

[2] = compound: CC(C)(O)CC(=O)NCCn1ccc2ncnc(Nc3ccc(Oc4cccc(C(F)(F)F)c4)c(Cl)c3)c21
Procedure, shortened: as §1

[3] = compound: CC(C)C1=C2N=C(C=C(N2N=C1)NCC3=CC=CC=C3)NCCCCCCN
Procedure, shortened: as §1

[4] = compound: CC1=C(C(CC(=O)N1)C2=CC=C(C=C2)C(F)(F)F)C(=O)NC3=C(C=C4C(=C3)C=NN4)F
Procedure, shortened: as §1

[5] = compound: CC1=C(C2=C(C=C1)C(=O)C3=CC=CC=C3N2CCCN)C
Procedure, shortened: as §1

[6] = compound: CC1=C(C=C(C=C1)NC(=O)C2=CC(=CC=C2)C(C)(C)C#N)NC3=CC4=C(C=C3)N=CN(C4=O)C
Procedure, shortened: as §1

[7] = compound: CC1=C(C=C(C=C1)NC(=O)C2=CC(=CC=C2)N(C)C)NC(=O)C3=CC=C(C=C3)O
Procedure, shortened: as §1

[8] = compound: CC1=CC=C(C=C1)SC2=C3C=C(SC3=CN=C2)C(=O)N
Procedure, shortened: as §1

vemurafenib = compound: CCCS(=O)(=O)Nc1ccc(F)c(C(=O)c2c[nH]c3ncc(-c4ccc(Cl)cc4)cc23)c1F [vemurafenib]
Procedure, shortened: as §1

[9] = compound: CCCS(=O)(=O)Nc1ccc(F)c(C(=O)c2c[nH]c3ncc(Cl)cc23)c1F
Procedure, shortened: as §1

barasertib = compound: CCN(CCCOc1ccc2c(Nc3cc(CC(=O)Nc4cccc(F)c4)[nH]n3)ncnc2c1)CCOP(=O)(O)O [barasertib]
Procedure, shortened: as §1

[10] = compound: CC[C@@H]1C(=O)N(C)c2cnc(Nc3ccc(C(=O)NC4CCN(C)CC4)cc3OC)nc2N1C1CCCC1
Procedure, shortened: as §1

volasertib = compound: CC[C@@H]1C(=O)N(C)c2cnc(Nc3ccc(C(=O)N[C@H]4CC[C@H](N5CCN(CC6CC6)CC5)CC4)cc3OC)nc2N1C(C)C [volasertib]
Procedure, shortened: as §1

[11] = compound: CCn1c(C(=O)N(C2CC2)C2CC2)cc2c3c(ncn3C)c(Nc3cc(C)n(C)n3)nc21
Procedure, shortened: as §1

[12] = compound: CCn1cc(-c2ccnc3[nH]c(-c4cccc(CN(C)C)c4)cc23)c(-c2ccc(NC(=O)N(C)C)cc2)n1
Procedure, shortened: as §1

[13] = compound: CN1CCC(CNc2ccc3ncc(-c4cccc(OC(F)(F)F)c4)n3n2)CC1
Procedure, shortened: as §1

saracatinib = compound: CN1CCN(CCOc2cc(OC3CCOCC3)c3c(Nc4c(Cl)ccc5c4OCO5)ncnc3c2)CC1 [saracatinib]
Procedure, shortened: as §1

sotrastaurin = compound: CN1CCN(c2nc(C3=C(c4c[nH]c5ccccc45)C(=O)NC3=O)c3ccccc3n2)CC1 [sotrastaurin]
Procedure, shortened: as §1

| Target | log2 fold change (ibrutinib) | log2 fold change [1] | log2 fold change (ralimetinib) | log2 fold change [2] | log2 fold change [3] | log2 fold change [4] | log2 fold change [5] | log2 fold change [6] | log2 fold change [7] | log2 fold change [8] | log2 fold change (vemurafenib) | log2 fold change [9] | log2 fold change (barasertib) | log2 fold change [10] | log2 fold change (volasertib) | log2 fold change [11] | log2 fold change [12] | log2 fold change [13] | log2 fold change (saracatinib) | log2 fold change (sotrastaurin) |
| --- | --- | --- | --- | --- | --- | --- | --- | --- | --- | --- | --- | --- | --- | --- | --- | --- | --- | --- | --- | --- |
| SCYL2 (UniProt Q6P3W7) | inactive: 0 | inactive: 0.005 | inactive: -0.009 | inactive: -0.025 | inactive: 0.003 | inactive: 0.045 | inactive: 0.033 | inactive: -0.029 | inactive: -0.029 | inactive: -0.012 | inactive: -0.003 | inactive: 0.01 | inactive: 0.05 | inactive: 0.081 | inactive: -0.001 | inactive: 0.02 | inactive: -0.041 | inactive: 0.015 | inactive: 0.011 | inactive: -0.034 |
| SEH1L isoform 1 (UniProt Q96EE3) | inactive: 0.013 | inactive: -0.024 | inactive: -0.011 | inactive: -0.008 | inactive: 0.005 | inactive: -0.021 | inactive: -0.014 | inactive: 0.015 | inactive: 0.017 | inactive: -0.014 | inactive: -0.029 | inactive: -0.001 | inactive: 0.004 | inactive: 0.069 | active: 0.216 | inactive: -0.015 | inactive: -0.022 | inactive: 0.021 | inactive: -0.005 | inactive: -0.01 |
| S100PBP (UniProt Q96BU1) | inactive: -0.056 | inactive: -0.011 | inactive: 0.038 | inactive: -0.019 | inactive: -0.083 | inactive: -0.087 | inactive: -0.004 | inactive: 0.088 | inactive: -0.001 | inactive: 0.057 | inactive: -0.001 | inactive: -0.072 | inactive: 0.05 | inactive: 0.06 | inactive: 0.04 | inactive: -0.01 | inactive: 0.034 | inactive: 0.03 | inactive: 0.036 | inactive: -0.033 |
| SEL1L (UniProt Q9UBV2) | inactive: 0.049 | inactive: -0.008 | inactive: 0.016 | inactive: -0.028 | inactive: -0.007 | inactive: 0.057 | inactive: -0.078 | inactive: -0.027 | inactive: -0.006 | inactive: 0.005 | inactive: 0.004 | inactive: 0.021 | inactive: 0.028 | inactive: 0.057 | inactive: 0.006 | inactive: -0.037 | inactive: 0.047 | inactive: 0.017 | inactive: -0.007 | inactive: 0.001 |
| SAP18 isoform 2 (UniProt O00422) | inactive: 0.026 | inactive: -0.006 | inactive: 0.031 | inactive: -0.035 | inactive: 0.04 | inactive: 0.03 | inactive: -0.049 | inactive: 0.005 | inactive: 0 | inactive: 0.039 | inactive: -0.008 | inactive: 0.036 | inactive: 0.048 | inactive: -0.018 | inactive: 0.013 | inactive: -0.007 | inactive: 0.001 | inactive: 0.006 | inactive: 0 | inactive: -0.018 |
| SEC24C (UniProt P53992) | inactive: -0.004 | inactive: -0.018 | inactive: 0.011 | inactive: 0.002 | inactive: 0.011 | inactive: -0.004 | inactive: 0.009 | inactive: -0.005 | inactive: -0.004 | inactive: 0.002 | inactive: 0.015 | inactive: 0.018 | inactive: 0.002 | inactive: -0.034 | inactive: -0.027 | inactive: -0.018 | inactive: -0.05 | inactive: 0.013 | inactive: 0.02 | inactive: -0.017 |
| SACM1L (UniProt Q9NTJ5) | inactive: -0.019 | inactive: 0.04 | inactive: 0.033 | inactive: -0.115 | inactive: 0.018 | inactive: 0.037 | inactive: 0.063 | inactive: 0.003 | inactive: 0.052 | inactive: 0.052 | inactive: -0.008 | inactive: -0.004 | inactive: 0.028 | inactive: -0.022 | inactive: -0.031 | inactive: -0.017 | inactive: -0.036 | inactive: -0.143 | inactive: 0.007 | inactive: -0.017 |
| SDHB (UniProt P21912) | inactive: 0.008 | inactive: -0.008 | inactive: -0.002 | inactive: 0.012 | inactive: 0.003 | inactive: -0.001 | inactive: 0 | inactive: 0.008 | inactive: -0.017 | inactive: -0.012 | inactive: 0 | inactive: 0.003 | inactive: -0.026 | inactive: 0.07 | inactive: 0.009 | inactive: 0.002 | inactive: -0.031 | inactive: 0.023 | inactive: -0.015 | inactive: -0.013 |
| SEPTIN5 (UniProt G3XAH0) | inactive: -0.002 | inactive: -0.004 | inactive: -0.046 | inactive: -0.036 | inactive: 0.003 | inactive: 0.011 | inactive: 0.044 | inactive: -0.02 | inactive: -0.018 | inactive: 0.062 | inactive: -0.077 | inactive: -0.027 | inactive: 0.04 | inactive: -0.005 | inactive: -0.032 | inactive: 0.023 | inactive: -0.007 | inactive: 0.025 | inactive: -0.036 | inactive: -0.018 |
| SEC24A (UniProt O95486) | inactive: -0.029 | inactive: -0.012 | inactive: -0.005 | inactive: -0.024 | inactive: -0.016 | inactive: 0.008 | inactive: 0.016 | inactive: 0.002 | inactive: 0.031 | inactive: 0.002 | inactive: 0.035 | inactive: 0.01 | inactive: 0.031 | inactive: -0.011 | inactive: -0.047 | inactive: -0.003 | inactive: 0.027 | inactive: -0.023 | inactive: 0.004 | inactive: -0.002 |
| SCCPDH (UniProt Q8NBX0) | inactive: 0.155 | inactive: -0.042 | inactive: 0.083 | inactive: 0.112 | inactive: 0.122 | inactive: -0.017 | inactive: -0.068 | inactive: 0.055 | inactive: -0.098 | inactive: 0.187 | inactive: -0.013 | inactive: -0.054 | inactive: 0.118 | inactive: 0.128 | inactive: 0.055 | inactive: -0.107 | inactive: -0.12 | inactive: 0.233 | inactive: -0.092 | inactive: 0.094 |
| SEC23A (UniProt Q15436) | inactive: 0.026 | inactive: -0.023 | inactive: 0.015 | inactive: 0 | inactive: -0.059 | inactive: 0.005 | inactive: 0.011 | inactive: 0 | inactive: -0.003 | inactive: -0.01 | inactive: -0.048 | inactive: 0.023 | inactive: 0.025 | inactive: -0.014 | inactive: -0.047 | inactive: 0.037 | inactive: -0.049 | inactive: 0.031 | inactive: 0 | inactive: 0.023 |
| SAMM50 (UniProt Q9Y512) | inactive: -0.044 | inactive: -0.004 | inactive: 0 | inactive: -0.058 | inactive: 0.009 | inactive: 0.013 | inactive: 0.004 | inactive: 0.038 | inactive: 0.013 | inactive: -0.011 | inactive: 0.024 | inactive: 0.003 | inactive: 0.012 | inactive: 0.025 | inactive: 0.031 | inactive: -0.002 | inactive: 0.076 | inactive: -0.041 | inactive: -0.007 | inactive: -0.008 |
| SEPHS2 (UniProt Q99611) | inactive: -0.014 | inactive: 0.015 | inactive: -0.001 | inactive: -0.035 | inactive: -0.033 | inactive: 0.02 | inactive: 0.002 | inactive: 0.015 | inactive: -0.038 | inactive: 0.012 | inactive: -0.008 | inactive: -0.004 | inactive: 0.015 | inactive: 0.023 | inactive: 0.02 | inactive: 0.014 | inactive: -0.036 | inactive: -0.003 | inactive: 0.008 | inactive: -0.038 |
| SCAP (UniProt Q12770) | inactive: -0.084 | inactive: 0.013 | inactive: 0.03 | inactive: 0.032 | inactive: -0.029 | inactive: 0.062 | inactive: -0.074 | inactive: -0.051 | inactive: -0.001 | inactive: 0.168 | inactive: -0.012 | inactive: -0.072 | inactive: 0.045 | inactive: 0.13 | inactive: -0.064 | inactive: 0.039 | inactive: -0.062 | inactive: 0.074 | inactive: 0.133 | inactive: 0.006 |
| SDHA (UniProt P31040) | inactive: -0.015 | inactive: 0 | inactive: 0.043 | inactive: 0.049 | inactive: -0.01 | inactive: 0.004 | inactive: 0.008 | inactive: 0.014 | inactive: -0.015 | inactive: 0.002 | inactive: 0.042 | inactive: 0.018 | inactive: -0.032 | inactive: -0.004 | inactive: 0.002 | inactive: -0.003 | inactive: -0.022 | inactive: 0.02 | inactive: -0.02 | inactive: 0.005 |

An excerpt of these results, tab-delimited.
Target	log2 fold change (ibrutinib)	log2 fold change [1]	log2 fold change (ralimetinib)	log2 fold change [2]	log2 fold change [3]	log2 fold change [4]	log2 fold change [5]	log2 fold change [6]	log2 fold change [7]	log2 fold change [8]	log2 fold change (vemurafenib)	log2 fold change [9]	log2 fold change (barasertib)	log2 fold change [10]	log2 fold change (volasertib)	log2 fold change [11]	log2 fold change [12]	log2 fold change [13]	log2 fold change (saracatinib)	log2 fold change (sotrastaurin)
SEL1L (UniProt Q9UBV2)	inactive: 0.049	inactive: -0.008	inactive: 0.016	inactive: -0.028	inactive: -0.007	inactive: 0.057	inactive: -0.078	inactive: -0.027	inactive: -0.006	inactive: 0.005	inactive: 0.004	inactive: 0.021	inactive: 0.028	inactive: 0.057	inactive: 0.006	inactive: -0.037	inactive: 0.047	inactive: 0.017	inactive: -0.007	inactive: 0.001
SDHA (UniProt P31040)	inactive: -0.015	inactive: 0	inactive: 0.043	inactive: 0.049	inactive: -0.01	inactive: 0.004	inactive: 0.008	inactive: 0.014	inactive: -0.015	inactive: 0.002	inactive: 0.042	inactive: 0.018	inactive: -0.032	inactive: -0.004	inactive: 0.002	inactive: -0.003	inactive: -0.022	inactive: 0.02	inactive: -0.02	inactive: 0.005

Reference: the supplement of paper PMC10849652
